Experimental data published in patent publication US10214710B2, “Intercalated bleach compositions, related methods of manufacture and use” (The Clorox Company, priority 2013, dated 2019).
Some entries share one result that the patent states for a list of compounds.

Experiment: Humidity stability, storage at 80° F. and 80% relative humidity
Format: physicochemical
Details: 2 months, stored closed
Description: In addition to the stability testing described above, the magnesium intercalated bleach compositions were tested for their resistance to humidity (i.e., their ability to resist degradation upon exposure to humidity). The results were compared with the humidity stability of alternative solid hypochlorite releasing products, specifically dibasic magnesium hypochlorite and a mixture of calcium hypochlorite and magnesium oxide. […] As shown, the initial weight percent hypochlorite was measured. Some samples were stored open, while others were stored closed, and the weight percentage of remaining hypochlorite was measured after the 2 month storage.
Two MIB samples were tested.

Substance: Mg(OCl)2.2Mg(OH)2 [dibasic magnesium hypochlorite]
- hypochlorite remaining, closed sample: 22-23 % by weight
